In PubChem BioAssay AID2685 (National Center for Advancing Translational Sciences (NCATS), 2010):
Some of the results follow. Shown are side measurements of this screen, not its main read-out; they come without a call. The list favours compounds with an active or inconclusive main result. Words in brackets tell the shape of the fitted curve; partial curves, single points and poor fits give uncertain potencies.

Experiment: qHTS Assay for Lipid Storage Modulators in Drosophila S3 Cells;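 on cell number change: cells counted by Cell Tracker Red CMTPX staining in the red channel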
Settings: BODIPY lipid droplet fluorescence, 18-24 h; for cell number change: measured here: cell count max response, cells fed with added oleic acid
Summary of the method: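 Drosophila S3 cells got compounds at several concentrations plus oleic acid (400 uM solution). Laser-scanning cytometry with 488 nm excitation read lipid droplets at 500-530 nm and cells at 575-640 nm. Percent activity was relative to 20 uM Triacsin C.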

[1] = measured here: lipid fluorescence (Fed channel) AC50, cells fed with added oleic acid
[2] = measured here: cell number channel AC50, cells fed with added oleic acid

Compound: NC(=O)CC(NC(=O)c1ccccc1)c1ccc(NC2CCCCC2)c([N+](=O)[O-])c1 (centres undefined)
- cell number change: -3.18%
- AC50 [1]: 29.1 µM [falling, single point]

Compound: CC(=O)c1ccc(OCCCC(=O)Nc2cc(S(=O)(=O)N(C)C)ccc2C)cc1
- cell number change: -19.5%
- AC50 [1]: 32.6 µM [falling, single point]

Compound: CC(Oc1ccccc1)C(=O)Nc1ccc(S(=O)(=O)Nc2nccs2)cc1 (centres undefined)
- cell number change: -22.2%

Compound: O=C(NCc1cn(-c2ccccc2)nc1-c1ccc(F)cc1)c1cccc([N+](=O)[O-])c1
- cell number change: -6.44%
- AC50 [1]: 29.1 µM [falling, single point]

Compound: S=C(Nc1ccc(Br)cc1Cl)Nn1cnnc1
- cell number change: -40.8%

Compound: CC1CCCCC1NC(=O)CCNC(=O)N1CC(=O)Nc2ccccc21 (centres undefined)
- cell number change: 17.9%
- AC50 [2]: 6.51 µM [rising, single point]
- AC50 [1]: 18.4 µM [falling, single point]

Compound: O=S1(=O)[C@H]2C[C@@H]3C=C[C@@]2(CN1Cc1ccccc1F)O3
- cell number change: 9.28%
- AC50 [1]: 5.8 µM [rising, full curve]

Compound: Oc1[nH]c2ccccc2c1N=Nc1ccccc1F
- cell number change: 1.11%

Compound: CCOC(=O)c1ccc(N2CCN(c3ccccc3F)CC2)c(NC(=O)Nc2cccc(OC)c2)c1
- cell number change: -0.74%
- AC50 [1]: 0.231 µM [rising, partial curve]

Compound: CCOC(=O)/C=c1\s/c(=C\c2sccc2C)c(=O)n1CC(=O)NCc1ccc(C)cc1
- cell number change: 36.9%
- AC50 [2]: 13 µM [rising, single point]

Compound: CCOC(=O)c1sc(NC(=O)c2cc(S(=O)(=O)N3CCOCC3)ccc2C)nc1C
- cell number change: 4.12%
- AC50 [1]: 13 µM [rising, partial curve, poor fit]

Compound: O=[N+]([O-])c1ccc(NC2CCN(Cc3ccccc3)CC2)c([N+](=O)[O-])c1
- cell number change: -16.3%
- AC50 [1]: 23.1 µM [falling, single point]

Compound: CC(C)(C)NC(=O)CCCSc1nc2ccccc2s1
- cell number change: -23.8%
- AC50 [1]: 29.1 µM [falling, single point]

Compound: CSc1nc(N2CCOCC2)nc2ccc(C)cc12
- cell number change: -36.3%
- AC50 [2]: 20.6 µM [falling, single point]
- AC50 [1]: 8.2 µM [falling, single point]

Compound: Cc1ccc(-c2csc3ncnc(Sc4nnc(CN5CCCCCC5=O)o4)c23)cc1
- cell number change: -21.8%
- AC50 [1]: 29.1 µM [falling, single point]

Compound: CCOc1ccc(S(=O)(=O)NCCC(=O)N(C)Cc2ccc(C)o2)cc1
- cell number change: 31.7%
- AC50 [2]: 4.11 µM [rising, full curve]
- AC50 [1]: 4.61 µM [rising, full curve]

Compound: O=C(c1ccc2c(c1)OCCO2)N1CCN(c2ccc([N+](=O)[O-])cc2)CC1
- cell number change: 43.6%
- AC50 [2]: 16.4 µM [rising, single point]
- AC50 [1]: 16.4 µM [rising, single point]

Compound: CCCCN1C(=O)C(=O)N(CC(=O)Nc2ccc(C(N)=O)cc2)C1=O
- cell number change: 17.5%
- AC50 [2]: 3.26 µM [falling, single point]
- AC50 [1]: 1.64 µM [falling, partial curve]

Compound: OCCN1CCN(c2ncnc3scc(-c4ccc(F)cc4)c23)CC1
- cell number change: -8.24%
- AC50 [1]: 18.4 µM [rising, single point]

Compound: COc1cc(OC)cc(-c2nc(-c3cc4cc(C)ccc4nc3OC)no2)c1
- cell number change: -16.2%
- AC50 [1]: 32.6 µM [falling, single point]

Compound: Cc1ccc(C2C(C(=O)O)c3ccccc3C(=O)N2C)o1 (centres undefined)
- cell number change: -0.965%
- AC50 [1]: 29.1 µM [falling, single point]

Compound: COc1ccc(NC2=NCCCCC2)cc1
- cell number change: 18.8%
- AC50 [1]: 29.1 µM [rising, single point]

Compound: Cc1cc(NC(=O)CCC(=O)N(Cc2ccccc2)C(C(=O)NC2CCCC2)c2ccco2)no1 (centres undefined)
- cell number change: -7.89%
- AC50 [1]: 5.62 µM [falling, single point]

Compound: Cc1ccc(NC(=O)COC(=O)C(NS(=O)(=O)c2ccc(Cl)cc2)C(C)O)cc1 (centres undefined)
- cell number change: 14.5%

Compound: C/C(=N\NC(=O)CN(c1ccc(C)cc1)S(C)(=O)=O)c1cccs1
- cell number change: 18.9%
- AC50 [1]: 8.2 µM [rising, partial curve, poor fit]

Compound: O=C(Nc1cnn(Cc2ccc(F)cc2)c1)c1cnn2c(C(F)F)cc(-c3ccccc3)nc12
- cell number change: -35.3%
- AC50 [2]: 23.1 µM [falling, single point]
- AC50 [1]: 20.6 µM [falling, single point]

Compound: COc1cccc(/C(O)=C2/C(=O)C(=O)N(CCCN(C)C)C2c2cccc(Cl)c2)c1 (centres undefined)
- cell number change: 2.51%
- AC50 [1]: 29.1 µM [rising, single point]

Compound: CCO[C@H]1OC(C(=O)N2CCN(Cc3ccc4c(c3)OCO4)CC2)=C[C@@H](c2ccc(C(F)(F)F)cc2)[C@@H]1CCCO
- cell number change: -31.9%
- AC50 [2]: 18.4 µM [falling, single point]

Compound: NS(=O)(=O)c1ccc(CCNC(=O)c2cc(-c3ccccn3)nc3ccc(Br)cc23)cc1
- cell number change: -3.74%
- AC50 [1]: 0.00461 µM [rising, full curve, poor fit]

Compound: COc1ccc(OC)c(CNC(=O)CCC(=O)N2Cc3cccc(OC)c3Oc3ncccc32)c1
- cell number change: -4.78%
- AC50 [1]: 29.1 µM [rising, single point]

Compound: Cc1ccc(-n2c(SCC(N)=O)nnc2-c2ccc(S(=O)(=O)N3CCCCC3)cc2)c(C)c1
- cell number change: 34.3%
- AC50 [2]: 5.8 µM [rising, full curve, poor fit]
- AC50 [1]: 6.51 µM [rising, partial curve, poor fit]

Compound: O=C(c1cccc(Cl)c1)N1CCC(C(=O)N2CCN(Cc3ccccc3)CC2)CC1
- cell number change: -30.2%
- AC50 [2]: 16.4 µM [falling, single point]

Compound: O=c1cc(CO)oc(CN2CCC(Cc3ccccc3)CC2)c1O
- cell number change: 0.207%
- AC50 [1]: 0.326 µM [rising, partial curve]

Compound: O=C(NC1(C(F)(F)F)NC(=O)N(c2ccc(F)cc2)C1=O)c1cccs1 (centres undefined)
- cell number change: 38%
- AC50 [2]: 32.6 µM [rising, single point]

Compound: CCc1nnc(NC(=O)c2ccc(OC)c(S(=O)(=O)N3CCCC3)c2)s1
- cell number change: 11.9%

Compound: CCOc1ccc(OCC)c(NC(=O)C2CCN(S(=O)(=O)c3ccc4c(c3)CC(C)N4C(C)=O)CC2)c1 (centres undefined)
- cell number change: -10.5%
- AC50 [1]: 18.4 µM [rising, single point]
